Measurements published in PubChem BioAssay AID1347075 (National Center for Advancing Translational Sciences (NCATS), 2019).
“And” between values parts separate entries of the source, which are not always exact repeats. Identical values can stand only once. Out of some 400,000 compounds screened, about 5,500 (1.4%) were called active. This list was built around the results that the source calls inconclusive (neither active nor inactive); the mix of calls is not that of the screen. Calls follow the shape of the dose curve; as a rule, active = well fitted cell-killing curve with a large enough effect; inconclusive = small, poorly fitted or top-dose-only effect, or effect the other way; inactive = flat fitted curve, though single readings scatter. Potencies beside an inconclusive call are fits to weak or partial responses and may not hold up.

Test: qHTS assay for MDR1-selective chemotherapeutics: Primary screen using the parental adenocarcinoma cell KB-3-1; also: nearly all actives have a fitted effect of over 60% in size
Conditions: KB-3-1 viability, CellTiter-Glo ATP luminescence, 72 h; activity change, negative = cytotoxic: at 46.1 µM (top of the series)
Summary of the method: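 KB-3-1 parental drug-naive adenocarcinoma cells in DMEM/10% FBS, incubated 72 h at 37 C with pin-transferred compounds across a concentration series. Viability by CellTiter-Glo luminescence; concentration-response curves fitted after normalization.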
% is scaled to controls: 0 for no effect and ±100 for the full control effect; potency is read from the fitted curve at half-maximal effect.

Structure (SMILES)	Potency	activity change, negative = cytotoxic
COc1ccc(CCNC(=O)CCCCC(=O)NCCc2ccc(OC)c(OC)c2)cc1OC	inconclusive: 6.51 µM [rising, full curve, poor fit]	
CC(=O)N1c2ccc(S(=O)(=O)N3CCC(C(=O)Nc4ccc(C)cn4)CC3)cc2CC1C (stereo not drawn)	active: 16.4 µM	
Cc1cc(N/N=C/c2ccccc2Cl)nc(NCc2ccccc2)n1	inconclusive: 29.1 µM [cytotoxic, single point]	
Cc1cccc(C)c1NC(=O)CCS(=O)(=O)c1cccc2nsnc12	inactive	
C=CCC[C@H](Cc1ccc(F)cc1)C(=O)OC[C@H](Cc1c[nH]c2ccccc12)NC(=O)[C@@H](CC=C)CC(=O)N[C@@H](CO)Cc1ccccc1	inconclusive: 29.1 µM [cytotoxic, single point]	
COc1ccc(S(=O)(=O)N(C(C)=O)c2ccc(OC(C)=O)c3ccccc23)cc1[N+](=O)[O-]	inconclusive: 29.1 µM [cytotoxic, single point]	
Cc1ccc(C)c(N2CCN(C(=O)c3ccc4nc(N5CCOCC5)sc4c3)CC2)c1	inconclusive: 20.6 µM [cytotoxic, single point]	
Cc1c(/C=N/O)sc2ccccc12	inconclusive: 23.1 µM [cytotoxic, single point]	
COc1ccc(-c2csc(N(CC3CCCO3)C(=O)c3cccs3)n2)cc1 (stereo not drawn)	inconclusive: 29.1 µM [cytotoxic, single point]	
O=C(Cn1nnc(-c2ccccc2NC(=O)c2ccccc2)n1)Nc1ccc2c(c1)OCCO2	inconclusive: 13 µM [cytotoxic, partial curve, poor fit]	
CCOc1ccc(Nc2cc(C)nc(-n3nc(C)cc3C)n2)cc1	active: 0.411 µM	
O=C(CCN1C(=O)/C(=C/c2ccccc2)SC1=S)NCCc1ccc(O)cc1	inconclusive: 32.6 µM [cytotoxic, single point]	
Cc1ccc2c(c1)[C@H]1[C@H](CO2)[C@H](c2ccccc2)[C@]2(C)C(=O)Nc3cc(Cl)ccc3C(=O)N12	inconclusive: 18.4 µM [cytotoxic, single point]	
N#C/C(=C/c1ccco1)C(N)=S	inactive	
CCC(=O)Nc1nonc1-c1nc2ccccc2n1Cc1ccccc1	inconclusive: 29.1 µM [cytotoxic, single point]	
CS(=O)(=O)c1ccc(NCC2CCCO2)c([N+](=O)[O-])c1 (stereo not drawn)	inconclusive: 16.4 µM [rising, single point]	
Cc1occc1C(=O)N/N=C/C=C\c1ccccc1[N+](=O)[O-]	inactive	
O=C(Nc1cccc(Br)c1)c1ccc(CN2CCc3ccccc3C2)cc1	inconclusive: 3.26 µM [cytotoxic, full curve]	
O=S1(=O)CC/C(=N/Nc2ccccn2)c2cc(F)ccc21	inconclusive: 23.1 µM [cytotoxic, single point]	
CCOc1ccc(CNC(=O)C2CCCN(S(=O)(=O)N(C)c3ccc(F)cc3)C2)cc1OC (stereo not drawn)	inconclusive: 29.1 µM [cytotoxic, single point]	
COc1cccc(/C=N/NC(=O)C(=O)Nc2ccccc2OC(F)(F)C(F)F)c1O	active: 9.2 µM	
Cc1ccccc1C(c1ncccc1C)N(C)C(=O)C1CCN(CCOc2ccc(Cl)cc2Cl)CC1 (stereo not drawn)	inconclusive: 29.1 µM [cytotoxic, single point]	
COc1ccc(-c2cn3nc(N4CCCC(C(=O)NCc5ccccc5OC)C4)sc3n2)cc1 (stereo not drawn)	inactive	

Structure (SMILES)	Potency	activity change, negative = cytotoxic
C=C(C)C(=O)N1CC2(CC(c3cccc(NC(=O)CC)c3)=NO2)C[C@H]1C(N)=O (stereo partly drawn)	inactive	
Cc1ccsc1CN1CC(=O)N(c2c(C)cccc2C)C1=S	inconclusive: 29.1 µM [cytotoxic, single point]	
CS(=O)(=O)c1nc(-c2ccc(Br)cc2)cc(-c2ccccc2)c1C#N	inconclusive: 18.4 µM [cytotoxic, single point]	
O=C(O)/C=C/C(=O)c1ccc2c(c1)CCc1ccccc1-2	active: 13 µM	
O=C(O)Cc1ccc(NC(=O)Cc2ccc3ccccc3c2)cc1	inactive	
CN(C)S(=O)(=O)c1ccc(Cl)c(NC(=O)CN2C(=O)NC3(CCCC3)C2=O)c1	inactive	
CON(C)C(=O)CC1(CN(Cc2ccccc2)C(=O)OC(C)(C)C)CCCCC1	inconclusive: 20.6 µM [cytotoxic, single point]	
O=C(Cc1cccc(NC(=O)C2CCCN(C(=O)C3CC3)C2)c1)Nc1cccc(C(=O)N2CCOCC2)c1 (stereo not drawn)	inactive	
CCOCCCn1c(=N)c(C(N)=S)cc2c(=O)n3cccc(C)c3nc21	inconclusive: 18.4 µM [rising, single point]	
Cc1cc(C)nc(N2CCN(C(=O)c3ccc(S(=O)(=O)N4CCCCCC4)cc3)CC2)n1	inconclusive: 13 µM [cytotoxic, single point]	
CC(C)C(OC(=O)c1ccccc1)c1nccc2ccccc12 (stereo not drawn)	inactive	
O=C(CN1CCCCC1)Nc1ccccc1Oc1ccccc1	inactive	
C[C@H]1CN([C@@H](C)CO)C(=O)CCCn2nncc2CO[C@@H]1CN(C)Cc1ccncc1	inactive	
COc1ccc(NS(=O)(=O)c2cccc(C(=O)N3CCCC3)c2)cc1	inconclusive: 32.6 µM [rising, single point]	
CN1CCN(c2ccc(NC(=S)NC(=O)c3cccc4c(Cl)cccc34)cc2)CC1	inactive	
O=C(CN1C(=O)/C(=C2\SC(=S)N(C3CCS(=O)(=O)C3)C2=O)c2ccccc21)Nc1ccccc1 (stereo not drawn)	inactive	
CCC(=O)N(C)CCc1cc2c(c(OC)c1/C=N/NC(=O)c1ccncc1)OCO2	inactive	
O=C(NCCc1ccccc1)c1ccc2c(c1)OCO2	inactive	
Cc1cccc(C(=O)N[C@H](C(=O)Nc2nc3ccc(S(C)(=O)=O)cc3s2)C(C)C)c1	inconclusive: 14.6 µM [rising, partial curve, poor fit]	
COc1ccc(N2CC(NC(=O)c3ccc4ccccc4c3)CC2=O)cc1OC (stereo not drawn)	inactive	
O=C(Nc1ccc(Cl)cc1)Nc1ccc(N2CCOCC2)cc1	inactive	
Cc1cccc(-c2nc3c(c(=O)c4ccccc4n3C)c(=O)n2-c2ccccc2)c1	inconclusive: 18.4 µM [rising, single point]	
Cc1ccccc1S(=O)(=O)Nc1ncc(C(F)(F)F)cc1Cl		inconclusive: -6.09%

Structure (SMILES)	Potency	activity change, negative = cytotoxic
COc1ccccc1-c1cc(C(F)(F)F)nc(S(C)(=O)=O)n1	inconclusive: 29.1 µM [cytotoxic, single point]	
O=C(CNc1cccc(S(=O)(=O)N2CCCCCC2)c1)Nc1cccc([N+](=O)[O-])c1	inconclusive: 29.1 µM [cytotoxic, single point]	
COC(=O)C1=C(CS(=O)(=O)c2ccc(OC)cc2)NC(=O)NC1c1ccccc1 (stereo not drawn)	inactive	
Cc1cccc(C)c1NC(=O)C1C(c2ccc3c(c2)OCO3)=Nc2ccccc2N1C(=O)c1cccc(C(F)(F)F)c1 (stereo not drawn)		inconclusive: -8.77%
Cc1cccc(NC(=O)c2ccc(-c3nc(CSc4ccccc4)c(C)o3)cc2)c1C	inactive	
O=C(OCC(=O)N1CCCC1)c1c[nH]c2ccccc12	inactive	
COc1ccc(-c2ccc3c(c2)O[C@@H](CN(C)C(=O)c2ccccc2F)[C@@H](C)CN([C@@H](C)CO)S3(=O)=O)cc1	inactive	
Cc1ccccc1C(=O)Nc1ccc2c(c1)CCCN2C(=O)c1cccs1	inconclusive: 11.6 µM [cytotoxic, partial curve, poor fit] and inconclusive: 6.51 µM [cytotoxic, partial curve]	
CC(=O)N1c2ccc(S(=O)(=O)N3CCC(C(=O)Nc4cccc(C)n4)CC3)cc2CC1C (stereo not drawn)	inconclusive: 13 µM [cytotoxic, partial curve, poor fit]	
Cc1ccc(S(=O)(=O)NCC(=O)NCC(=O)NC(C)c2ccccc2Br)cc1C (stereo not drawn)	inconclusive: 29.1 µM [cytotoxic, single point]	
CC1CCc2c(C(=O)OCC(=O)Nc3cccc(S(=O)(=O)N4CCCCCC4)c3)csc2C1 (stereo not drawn)	inconclusive: 16.4 µM [cytotoxic, single point]	
COCCNC(=O)CCN1C(=O)c2cccnc2Oc2ccc(C)cc21	inactive	
CCCCCCCCCCn1ccc(=N)cc1	active: 2.31 µM	
Cc1ccc(CN2C(=O)C(C)Nc3ncnc(N4CCN(c5ccccn5)CC4)c32)cc1 (stereo not drawn)	inconclusive: 29.1 µM [cytotoxic, single point]	
CCCN(CC(=O)Nc1ccccc1C)C(=O)c1ccc(-c2ccc([N+](=O)[O-])cc2)o1	inconclusive: 32.6 µM [cytotoxic, single point]	
CCC(C)c1ccc(NC(=O)C2=CC=CN3CCS(=O)(=O)N=C23)cc1 (stereo not drawn)	inconclusive: 29.1 µM [rising, partial curve, poor fit]	
Cc1cccc(OCCOC(=O)c2c(-c3ccccc3)noc2C)c1	inconclusive: 29.1 µM [cytotoxic, single point]	
COc1ccc(C(=O)Nc2c(-c3cccs3)c(=O)c3ccccc3n2C)cc1	inconclusive: 29.1 µM [rising, single point]	
Cc1ccc(-n2nc(C(=O)Nc3ccc(C)c(F)c3)c3c4ccccc4n(C)c3c2=O)cc1	inactive	
O=C(COC(=O)c1n[nH]c2ccccc12)Nc1ccc(S(=O)(=O)N2CCCC2)cc1	inconclusive: 16.4 µM [cytotoxic, single point]	
CCN(CC)c1ccc(/C=C(/C#N)C(=O)NC(C)C)o1	inconclusive: 29.1 µM [rising, single point]	
CC(=O)N1CCN(C(=S)Nc2cc(C)ccn2)CC1	inconclusive: 29.1 µM [rising, single point]	
